# Results from publication PMC11589570, “Critical assessment of LC3/GABARAP ligands used for degrader development and ligandability of LC3/GABARAP binding pockets” (Nature Communications, 2024).
# Where “and” joins values, the source holds several entries; their conditions need not be identical. Equal entries are not always repeated. The source gives many values for each of these; only a part stands here.
# Tested on: U2OS cells
# Experiment: Cell growth assay (IncuCyte confluence over 72 h)
# Type: cell-based
# Parameters: key: % of well area covered by cells (confluence)
# Settings: listed as KT1
# Procedure, shortened: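 U2OS cells were grown in DMEM with 10% FBS for 24 h before treatment. Confluence was then tracked by IncuCyte phase imaging over 72 h and expressed as % of well area covered by cells. Each point is the average of three wells.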
smiles,measurement,setting,value
Cc1ccc(C)c(S(=O)(=O)Nc2cc(SCC(=O)O)c(O)c3ccccc23)c1 [compound 8],U2OS cell growth,"100 nM, time 10 h",31.5931 and 32.9555 and 37.7058
same,U2OS cell growth,"100 nM, time 12 h",26.9508 and 28.1158 and 29.7395
same,U2OS cell growth,"100 nM, time 14 h",26.4964 and 29.601 and 48.1091
same,U2OS cell growth,"100 nM, time 18 h",42.328 and 38.9711 and 54.3004
same,U2OS cell growth,"100 nM, time 20 h",35.5557 and 29.0344 and 42.8704
same,U2OS cell growth,"100 nM, time 22 h",37.3905 and 39.4392 and 43.2741
same,U2OS cell growth,"100 nM, time 24 h",49.3463 and 49.8246 and 78.7066
same,U2OS cell growth,"100 nM, time 26 h",34.0436 and 38.6927 and 43.7241
same,U2OS cell growth,"100 nM, time 28 h",36.8529 and 43.4901 and 66.3645
same,U2OS cell growth,"100 nM, time 30 h",29.3708 and 38.3295 and 35.6751
same,U2OS cell growth,"100 nM, time 32 h",40.419 and 35.9753 and 49.3313
same,U2OS cell growth,"100 nM, time 34 h",54.5574 and 57.2358 and 66.159
same,U2OS cell growth,"100 nM, time 36 h",53.407 and 53.3742 and 57.8264
same,U2OS cell growth,"100 nM, time 38 h",67.7197 and 49.4083 and 58.7768
same,U2OS cell growth,"100 nM, time 40 h",48.7069 and 57.3461 and 72.4337
same,U2OS cell growth,"100 nM, time 42 h",62.1849 and 63.0149 and 74.6942
same,U2OS cell growth,"100 nM, time 44 h",60.4797 and 65.2196 and 66.3725
same,U2OS cell growth,"100 nM, time 46 h",60.2129 and 61.9163 and 66.7853
same,U2OS cell growth,"100 nM, time 48 h",59.2222 and 63.4975 and 74.4608
same,U2OS cell growth,"100 nM, time 50 h",78.0116 and 79.7739 and 84.4744
same,U2OS cell growth,"100 nM, time 52 h",75.0931 and 79.693 and 78.4583
same,U2OS cell growth,"100 nM, time 54 h",86.209 and 91.8945 and 91.2675
same,U2OS cell growth,"100 nM, time 56 h",73.7258 and 83.2836 and 86.8462
same,U2OS cell growth,"100 nM, time 60 h",77.9364 and 85.0442 and 89.7625
same,U2OS cell growth,"100 nM, time 62 h",77.8397 and 84.6221 and 95.3063
same,U2OS cell growth,"100 nM, time 64 h",88.1953 and 92.1987 and 97.3616
same,U2OS cell growth,"100 nM, time 66 h",83.6038 and 87.261 and 88.02
same,U2OS cell growth,"100 nM, time 68 h",85.2104 and 86.3513 and 89.3641
same,U2OS cell growth,"100 nM, time 70 h",93.7309 and 93.4137 and 96.6674
same,U2OS cell growth,"100 nM, time 72 h",94.4479 and 95.5701 and 96.9216
same,U2OS cell growth,"500 nM, time 10 h",28.4962 and 26.957 and 38.9718
same,U2OS cell growth,"500 nM, time 12 h",30.4808 and 36.8352 and 30.4708
same,U2OS cell growth,"500 nM, time 14 h",33.407 and 30.8821 and 40.3772
same,U2OS cell growth,"500 nM, time 16 h",27.4163 and 27.2976 and 48.5558
same,U2OS cell growth,"500 nM, time 18 h",37.2867 and 37.8143 and 41.6502
same,U2OS cell growth,"500 nM, time 20 h",29.1636 and 33.7176 and 36.6854
same,U2OS cell growth,"500 nM, time 22 h",36.8381 and 35.9409 and 41.3032
same,U2OS cell growth,"500 nM, time 24 h",52.3879 and 57.7945 and 59.3594
same,U2OS cell growth,"500 nM, time 26 h",46.5212 and 38.999 and 45.0769
same,U2OS cell growth,"500 nM, time 28 h",43.0232 and 43.7697 and 48.1427
same,U2OS cell growth,"500 nM, time 30 h",45.8392 and 43.4464 and 54.8064
same,U2OS cell growth,"500 nM, time 32 h",49.1408 and 45.6295 and 46.7112
same,U2OS cell growth,"500 nM, time 34 h",58.5367 and 56.8355 and 62.0469
same,U2OS cell growth,"500 nM, time 36 h",59.2451 and 42.1843 and 57.1739
same,U2OS cell growth,"500 nM, time 38 h",57.4335 and 49.4542 and 59.1026
same,U2OS cell growth,"500 nM, time 40 h",76.7002 and 52.8257 and 54.0973
same,U2OS cell growth,"500 nM, time 42 h",60.2047 and 61.5836 and 63.6306
same,U2OS cell growth,"500 nM, time 44 h",82.3521 and 59.6693 and 67.7339
same,U2OS cell growth,"500 nM, time 46 h",69.353 and 60.7941 and 67.9507
same,U2OS cell growth,"500 nM, time 48 h",73.1294 and 57.9166 and 67.0995
same,U2OS cell growth,"500 nM, time 50 h",83.5301 and 70.5108 and 83.6801
same,U2OS cell growth,"500 nM, time 52 h",73.2069 and 70.6896 and 78.3429
same,U2OS cell growth,"500 nM, time 54 h",95.0981 and 85.7145 and 89.5598
same,U2OS cell growth,"500 nM, time 56 h",87.6208 and 85.6523 and 84.5499
same,U2OS cell growth,"500 nM, time 58 h",82.305 and 77.6129
same,U2OS cell growth,"500 nM, time 60 h",95.4886 and 86.1951 and 89.381
same,U2OS cell growth,"500 nM, time 62 h",97.5509 and 90.1603 and 87.1942
same,U2OS cell growth,"500 nM, time 64 h",94.8805 and 89.2154 and 93.8653
same,U2OS cell growth,"500 nM, time 66 h",95.1037 and 85.1433 and 92.6081
same,U2OS cell growth,"500 nM, time 68 h",96.8788 and 89.8779 and 94.3714
same,U2OS cell growth,"500 nM, time 70 h",97.3087 and 94.6633 and 92.3599
same,U2OS cell growth,"500 nM, time 72 h",96.4304 and 92.0092 and 95.1657
same,U2OS cell growth,"1 uM, time 10 h",30.7878 and 21.8524
same,U2OS cell growth,"1 uM, time 12 h",32.6568 and 35.5896 and 27.3431
same,U2OS cell growth,"1 uM, time 14 h",36.1298 and 31.3296 and 28.0135
same,U2OS cell growth,"1 uM, time 16 h",29.9939 and 32.2018 and 27.3132
same,U2OS cell growth,"1 uM, time 18 h",31.6247 and 44.4237 and 28.196
same,U2OS cell growth,"1 uM, time 20 h",30.8219 and 33.3943 and 27.7551
same,U2OS cell growth,"1 uM, time 22 h",32.4562 and 32.7161 and 26.527
same,U2OS cell growth,"1 uM, time 24 h",52.4047 and 53.4695 and 41.5137
same,U2OS cell growth,"1 uM, time 26 h",41.9077 and 44.3364 and 37.0535
same,U2OS cell growth,"1 uM, time 28 h",41.5284 and 47.8561 and 35.6154
same,U2OS cell growth,"1 uM, time 30 h",44.2919 and 41.4619 and 39.92
same,U2OS cell growth,"1 uM, time 32 h",38.4768 and 39.8918 and 30.4696
same,U2OS cell growth,"1 uM, time 34 h",52.3604 and 53.567 and 46.299
same,U2OS cell growth,"1 uM, time 36 h",41.3591 and 50.0279 and 43.6836
same,U2OS cell growth,"1 uM, time 38 h",46.0761 and 54.3725 and 45.166
same,U2OS cell growth,"1 uM, time 40 h",48.2768 and 60.4319 and 38.2819
same,U2OS cell growth,"1 uM, time 42 h",62.575 and 63.236 and 58.7517
same,U2OS cell growth,"1 uM, time 44 h",57.6562 and 62.0966 and 51.4455
same,U2OS cell growth,"1 uM, time 46 h",70.7802 and 58.8381 and 56.8545
same,U2OS cell growth,"1 uM, time 48 h",58.9669 and 58.1065 and 55.8487
same,U2OS cell growth,"1 uM, time 50 h",63.6319 and 71.2329 and 62.1028
same,U2OS cell growth,"1 uM, time 52 h",70.1841 and 80.67 and 64.5429
same,U2OS cell growth,"1 uM, time 54 h",81.8222 and 85.9637 and 71.6847
same,U2OS cell growth,"1 uM, time 56 h",89.4356 and 92.1968 and 84.8875
same,U2OS cell growth,"1 uM, time 58 h",76.3009 and 85.3672 and 76.6991
same,U2OS cell growth,"1 uM, time 60 h",88.1065 and 92.0789 and 89.6687
same,U2OS cell growth,"1 uM, time 62 h",88.1372 and 90.3744 and 82.0129
same,U2OS cell growth,"1 uM, time 64 h",84.8463 and 96.8412 and 86.0509
same,U2OS cell growth,"1 uM, time 66 h",82.1046 and 88.8888 and 79.023
same,U2OS cell growth,"1 uM, time 68 h",86.6836 and 93.3764 and 90.7052
same,U2OS cell growth,"1 uM, time 70 h",93.567 and 88.0961 and 92.0556
